Reference: the supplement of paper PMC8920030
Further values from the same series stand in other lists. Where a SMILES comes first, the peptide text is derived from it. Bridges are numbered along the chain shown (N, C = ends). [ ]: non-standard residue; d: D form. The star is where a group is joined. Heptanoyl(5-Me) = CCC(C)CCCC(=O)*; Dab = NCC[C@H](N)C(=O)O

Key:
Conditions in all cases: growth mode: biofilm, 24 h; exposure time: 24 h
tobramycin [1] = compound: T1, NC[C@H]1O[C@H](O[C@H]2[C@H](O)[C@@H](O[C@H]3O[C@H](CO)[C@@H](O)[C@H](N)[C@H]3O)[C@H](N)C[C@@H]2N)[C@H](N)C[C@@H]1O [tobramycin]; assay: minimum concentration of killing, 4-log CFU reduction of biofilm (MCK99.99); higher = more biofilm tolerance
Description: (§1)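 Clinical P. aeruginosa isolates were grown as static biofilms for 24 h at 37 °C in LB in half-area 96-well plates, then exposed for 24 h to tobramycin at 1, 4, 16, 64, 256 or […]. Surviving CFU were counted by spotting serial dilutions. MCK is the lowest tested concentration giving the stated log reduction in CFU versus an untreated control; '>1024' means the reduction was not reached at the top dose, and 1 is the lowest dose tested (≤1).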

colistin [2] = compound: T2, CCC(C)CCCC(=O)N[C@@H](CCN)C(=O)N[C@H](C(=O)N[C@@H](CCN)C(=O)N[C@H]1CCNC(=O)[C@H]([C@@H](C)O)NC(=O)[C@H](CCN)NC(=O)[C@H](CCN)NC(=O)[C@H](CC(C)C)NC(=O)[C@@H](CC(C)C)NC(=O)[C@H](CCN)NC1=O)[C@@H](C)O [colistin]; assay: minimum concentration eradicating biofilm below detection limit (MCK-E); higher = more biofilm tolerance
Description: as §1, with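 “colistin” for “tobramycin”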

colistin [3] = compound: T2, colistin; assay: minimum concentration of killing, 4-log CFU reduction of biofilm (MCK99.99); higher = more biofilm tolerance
Description: as §1, with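 “colistin” for “tobramycin”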

tobramycin [4] = compound: T1, tobramycin; assay: minimum concentration of killing, 2-log CFU reduction of biofilm (MCK99); higher = more biofilm tolerance
Description: as §1

tobramycin [5] = compound: T1, tobramycin; assay: minimum concentration eradicating biofilm below detection limit (MCK-E); higher = more biofilm tolerance
Description: as §1

tobramycin [6] = compound: T1, tobramycin; assay: minimum concentration of killing, 1-log CFU reduction of biofilm (MCK90); higher = more biofilm tolerance
Description: as §1

colistin [7] = compound: T2, colistin; assay: as above
Description: as §1, with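 “colistin” for “tobramycin”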

colistin [8] = compound: T2, colistin; assay: minimum concentration of killing, 2-log CFU reduction of biofilm (MCK99); higher = more biofilm tolerance
Description: as §1, with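 “colistin” for “tobramycin”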

Test System	minimum concentration of killing (tobramycin [1])	minimum concentration eradicating biofilm below detection limit (colistin [2])	minimum concentration of killing (colistin [3])	minimum concentration of killing (tobramycin [4])	minimum concentration eradicating biofilm below detection limit (tobramycin [5])	minimum concentration of killing (tobramycin [6])	minimum concentration of killing (colistin [7])	minimum concentration of killing (colistin [8])
Pseudomonas aeruginosa clinical isolate PSAE1651	256 µg/mL	1020 µg/mL	1020 µg/mL	≤ 1 µg/mL	1020 µg/mL	≤ 1 µg/mL	64 µg/mL	256 µg/mL
Pseudomonas aeruginosa clinical isolate PSAE1654	64 µg/mL	256 µg/mL	256 µg/mL	64 µg/mL	256 µg/mL	4 µg/mL	64 µg/mL	256 µg/mL
Pseudomonas aeruginosa clinical isolate PSAE1745	1020 µg/mL	256 µg/mL	256 µg/mL	1020 µg/mL	> 1020 µg/mL	1020 µg/mL	64 µg/mL	256 µg/mL
Pseudomonas aeruginosa clinical isolate PSAE1837	1020 µg/mL	64 µg/mL	64 µg/mL	64 µg/mL	1020 µg/mL	4 µg/mL	64 µg/mL	64 µg/mL
Pseudomonas aeruginosa clinical isolate PSAE1872	64 µg/mL	256 µg/mL	256 µg/mL	4 µg/mL	1020 µg/mL	4 µg/mL	16 µg/mL	64 µg/mL
Pseudomonas aeruginosa clinical isolate PSAE1903	256 µg/mL	256 µg/mL	256 µg/mL	256 µg/mL	256 µg/mL	16 µg/mL	64 µg/mL	256 µg/mL
Pseudomonas aeruginosa clinical isolate PSAE1934	4 µg/mL	256 µg/mL	256 µg/mL	≤ 1 µg/mL	64 µg/mL	≤ 1 µg/mL	64 µg/mL	64 µg/mL
Pseudomonas aeruginosa clinical isolate PSAE1975	64 µg/mL	1020 µg/mL	256 µg/mL	16 µg/mL	64 µg/mL	16 µg/mL	256 µg/mL	256 µg/mL
Pseudomonas aeruginosa clinical isolate PSAE1984	256 µg/mL	256 µg/mL	256 µg/mL	4 µg/mL	256 µg/mL	4 µg/mL	64 µg/mL	64 µg/mL
Pseudomonas aeruginosa clinical isolate PSAE2125	1020 µg/mL	256 µg/mL	64 µg/mL	64 µg/mL	1020 µg/mL	16 µg/mL	64 µg/mL	64 µg/mL
Pseudomonas aeruginosa clinical isolate PSAE2126	64 µg/mL	256 µg/mL	256 µg/mL	≤ 1 µg/mL	64 µg/mL	≤ 1 µg/mL	256 µg/mL	256 µg/mL
